# Experimental data: PubChem BioAssay AID602196 (INSERM, 2012)
# Aim: 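Modifiers of cisplatin sensitivity in A549 cells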
# Cell system: human A549 lung cancer cells
# Reagent: siRNA pair against human genes
# Time to read-out: 48 h transfection before cisplatin; time from cisplatin to read-out not stated
# Treatment: cisplatin at a dose killing half of control-siRNA cells; exact dose and duration not given
# Read-out: 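Shift in cisplatin death relative to control siRNA, from -50 (all cells die) to +50 (no cells die); siRNAs harmful on their own scored 0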
# Scale: two-siRNA summed score (-2 to +2): higher = both siRNAs protect from cisplatin killing; -2 means both sensitise; mean protection from cisplatin (shift in death) and protection from cisplatin (shift in death), siRNA C and protection from cisplatin (shift in death), siRNA D: higher = protection from cisplatin killing
# Active means: 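Each siRNA scores 0 if harmful alone by LDH or WST-1, otherwise +1 if it reduces and -1 if it increases cisplatin killing; a gene is active when both siRNAs agree (sum +2 or -2)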
# Meaning of the calls: active = both siRNAs shift cisplatin killing the same way; inactive = no consistent shift, or siRNA harmful alone
# In all, the deposit lists about 23,000 reagents; shown is an unselected part. 455 of all reagents (2%) were called active. 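Active includes both protection and sensitisation; some change values fall well beyond the stated -50 to +50 range.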 No sequences are given here. The record does not give: the amount of reagent.
gene,two-siRNA summed score (-2 to +2),mean protection from cisplatin (shift in death) (%),"protection from cisplatin (shift in death), siRNA C (%)","protection from cisplatin (shift in death), siRNA D (%)",call
HSD17B11 (hydroxysteroid 17-beta dehydrogenase 11),-1,-14,4.7,-32.7,inactive
DNAJA1 (DnaJ heat shock protein family (Hsp40) member A1),-1,-6.2,8.8,-21.2,inactive
OR2F2 (olfactory receptor family 2 subfamily F member 2),0,-4.9,-0.8,-9.1,inactive
OVOL2 (ovo like zinc finger 2),1,0.6,13,-11.8,inactive
"FIGN (fidgetin, microtubule severing factor)",0,7,9.4,4.6,inactive
LOC402587,0,10.7,12.4,9,inactive
MYL12BP2 (MYL12B pseudogene 2),0,7.3,6.6,8,inactive
DMRT2 (doublesex and mab-3 related transcription factor 2),0,6.4,3.7,9,inactive
MAGEE2 (MAGE family member E2),0,-2.3,2,-6.6,inactive
SSBP2 (single stranded DNA binding protein 2),0,12.8,8.5,17.1,inactive
HSPB2 (heat shock protein family B (small) member 2),0,3.7,12.3,-4.9,inactive
MC5R (melanocortin 5 receptor),0,-16.1,-8.5,-23.7,inactive
CT47A11 (cancer/testis antigen family 47 member A11),1,5.5,-7.3,18.3,inactive
AZIN2 (antizyme inhibitor 2),0,19.1,25.8,12.4,inactive
FBXO30 (F-box protein 30),1,12.4,17.3,7.4,inactive
CNOT2 (CCR4-NOT transcription complex subunit 2),-1,-5,-16.7,6.8,inactive
NKD1 (NKD inhibitor of Wnt signaling pathway 1),0,-2.6,-2.8,-2.4,inactive
NPM2 (nucleophosmin/nucleoplasmin 2),-1,-12.4,-12.5,-12.3,inactive
NKIRAS1 (NFKB inhibitor interacting Ras like 1),0,-1.1,-2.3,0,inactive
NEURL1 (neuralized E3 ubiquitin protein ligase 1),0,4.7,6.8,2.7,inactive
C11orf71 (chromosome 11 open reading frame 71),0,8.8,16.8,0.7,inactive
MAP1A (microtubule associated protein 1A),0,-2.6,5.6,-10.8,inactive
OR2T2 (olfactory receptor family 2 subfamily T member 2),0,-2,2.1,-6.1,inactive

Targets listed so far whose target name starts with C or c (3):
gene,two-siRNA summed score (-2 to +2),mean protection from cisplatin (shift in death) (%),"protection from cisplatin (shift in death), siRNA C (%)","protection from cisplatin (shift in death), siRNA D (%)",call
CT47A11 (cancer/testis antigen family 47 member A11),1,5.5,-7.3,18.3,inactive
CNOT2 (CCR4-NOT transcription complex subunit 2),-1,-5,-16.7,6.8,inactive
C11orf71 (chromosome 11 open reading frame 71),0,8.8,16.8,0.7,inactive
